Source: paper doi:10.1101/2021.06.04.447173

Molecular target: MOG-7::degron::GFP (C. elegans (endogenous in worms))
Experiment: affinity purification with mass spectrometry

binding: binds
B1: STIP-1 (protein, UniProt Q17784 1-830)
chain: MEDDDGRESFEINDMDLEYAMNPGGRRRFQNKDQATYGVFAPDSDDDDDEQGTSRGPYKKRSKISAPMSFVSGGIQQGNKIDKDDPASLNLNLGGEKKPKEDDEGSIQIDFDKRTKKAPKQNGAQVFAGMRSSANHGAADINQFGSWMRGDGNSNKIMKMMQAMGYKPGEGLGAQGQGIVEPVQAQLRKGRGAVGAYGKESTATGPKFGESAADAQKRMAQEGTSSRPTNDDQEKSGLKIKGSWKKSQTVKTKYRTIEDVMEEGMSASRPASHQQSQQYSNIKVIDMTGKQQKIYSGYDSFSMKTRSEYDTVDDEERTVFDVPELIHNLNLLVDLTEEGIRRSNQQLISLKDQTTALEYDLQQVQKSLGTEEQEAQHIKDVYELIDGFSSNRSPSMEECQELFRRLRSEFPHEYELYSLETVAIPTVLPLIQKYFVAWKPLEDKNYGCELISTWRDILDDSKNGRKMTFGHNKTKGDEIRAYDRIIWEGILPSIRRACLQWDPSTQMHEMIELVEQWIPLLSAWITENILEQLVVPKIAERVNQWDPMTDEIPIHEWLVPWLVLLGDRIQTVMPPIRQKLSKALKLWDPMDRSALETLRPWQNVWSAATFSAFIAQNIVPKLGVALDTMELNPTMNPEYPEWTACMEWLEFTHPDAIANIVTKYFFPRFYNCLCLWLDSPGVDYNEVKRWYGSWKARIPQVLVNYPTVNENLRRSMIAIGRSLQGEKVGGLQATPIAPMAPPPPMAPHFTQAAPVQKLSLKEIIEYTAGKNGFTYHPQKDRYKDGRQVFWFGALSIYLDSEMVYVMDPIEFVWRPSGLNELIQMAQGAQG

No constants are given. Whether binding was seen depends on the method and setting. Binding seen in cells or lysates may run through a third protein. A yes stands for co-enrichment or nearness to the bait. Other partners may have been found.
